Results reported in PubChem BioAssay AID504444 (National Center for Advancing Translational Sciences (NCATS), 2011).
Hit rate of the full screen: of about 360,000 compounds, about 7,500 (2.1%) were called active. Inconclusive results, whose numbers are uncertain, are shown with a selection of clear calls. The call rests on the fitted dose curve; in most records, active means well fitted inhibition curve with a large enough effect; inconclusive means small, poorly fitted or top-dose-only effect, or effect the other way; inactive means flat fitted curve, though single readings scatter. Potencies beside an inconclusive call are fits to weak or partial responses and may not hold up.

Assay: Nrf2 qHTS screen for inhibitors; further: nearly all actives have a fitted effect of over 60% in size
Settings: A549 ARE-Fluc reporter, luciferase luminescence, 18-24 h; series mostly up to 46 µM
In short: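 Two sequential reads on A549 ARE_Fluc cells exposed to compound for 18-24 h: a CellTiter-Fluor fluorescence read for viability, then a luciferase luminescence read for Nrf2/ARE activity.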
Potency means the concentration at half of the fitted maximal effect.

SMILES	Potency
O=C(CN1CCN(c2ccc(F)cc2)CC1)Nc1nnc(-c2ccccc2)s1	inconclusive: 6.51 µM [falling, single point]
COc1ccccc1NS(=O)(=O)c1cc(C(=O)NCc2cccnc2)ccc1C	inconclusive: 25.9 µM [falling, partial curve, poor fit]
CCc1ccc(C(=O)Nc2ccc(OC)c(S(=O)(=O)N3CCOCC3)c2)cc1	inconclusive: 20.6 µM [falling, single point]
CCCCN(CC)C(=O)c1cc2cc3ccc(OC)cc3nc2o1	inconclusive: 29.1 µM [falling, single point]
CCN1CCN(c2ccc(Nc3ccnc4ccccc34)cc2)CC1	inactive
CC(C)c1ccc(OCC(=O)NNC(=S)NC(=O)c2cccs2)c(Br)c1	inconclusive: 25.9 µM [falling, partial curve, poor fit]
CC(=O)Nc1nc2c(F)cccc2s1	inconclusive: 5.8 µM [falling, single point]
Cc1ccc(OCCC(=O)OCC(=O)NC2CCCC2)cc1	inconclusive: 3.26 µM [activator, partial curve, poor fit]
CC(C)Oc1ccc(CNC(=O)CC(c2ccccc2)c2cc(Cl)ccc2O)cc1 (centres undefined)	inconclusive: 25.9 µM [falling, partial curve, poor fit]
Cc1cccc(NC(=O)c2cc(-c3ccco3)nc3ccccc23)n1	inactive
COc1ccccc1NC(=O)c1ccccc1NS(=O)(=O)c1cccs1	inactive
COc1ccccc1-c1c(C)nn2c(N3CCCCCC3)cc(C)nc12	active: 25.9 µM
CCOc1ccc(CCNC(=O)c2[nH]c(C)c(C(C)=O)c2C)cc1OCC	inactive
CCOc1ccc(-c2nc(SCC(=O)NC3CCCC3)c(-c3ccccc3)[nH]2)cc1OC	inconclusive: 20.6 µM [falling, single point]
CCc1ccccc1-n1ncc(C(=O)Nc2ccccc2OC)c1C	inconclusive: 20.6 µM [falling, single point]
CC(Sc1nnnn1C)C(=O)Nc1ccc2c(c1)OCCO2 (centres undefined)	inconclusive: 29.1 µM [activator, single point]
CC(Oc1cccc(Br)c1)C(=O)NNC(=O)c1ccccn1 (centres undefined)	inconclusive: 20.6 µM [falling, single point]
COc1ccc(CNCCC(c2ccccc2)c2ccc3c(c2)OCO3)cc1 (centres undefined)	inconclusive: 29.1 µM [falling, single point]
CC1CCC(C(C)C)C(OC(=O)C[n+]2cccc(C(N)=O)c2)C1 (centres undefined)	inconclusive: 29.1 µM [activator, single point]
O=C(NC1CCN(C(=S)NCc2ccco2)CC1)NC12CC3CC(CC(C3)C1)C2	inconclusive: 32.6 µM [falling, single point]
Cn1c(/C=C/c2ccc([N+](=O)[O-])o2)nc2ccccc2c1=O	active: 20.6 µM
C/C(=N\NC(=O)OC(C)(C)C)c1ccccc1Br	inconclusive: 20.6 µM [activator, partial curve, poor fit]

Arranged by molar mass (low to high): some entries from above
SMILES	Potency
Cc1ccc(OCCC(=O)OCC(=O)NC2CCCC2)cc1	inconclusive: 3.26 µM [activator, partial curve, poor fit]
COc1ccccc1NC(=O)c1ccccc1NS(=O)(=O)c1cccs1	inactive
CCc1ccc(C(=O)Nc2ccc(OC)c(S(=O)(=O)N3CCOCC3)c2)cc1	inconclusive: 20.6 µM [falling, single point]

The listing continues.

SMILES	Potency
O=C(CSCc1ccc(Cl)cc1)Nc1ccccc1O	inactive
O=C(CN1CCN(S(=O)(=O)c2cccc(Br)c2)CC1)NCCc1cccs1	inactive
CN(Cc1ccccc1)C(=O)c1cccc(NC(=O)Cc2ccc(NC(=O)C3CCN(C(=O)C4CCC4)CC3)cc2)c1	inconclusive: 25.9 µM [falling, single point]
Cc1ccc2[nH]c3c(c2c1)CN(C(=O)CN(C)CC1OCCO1)CC3	inconclusive: 0.206 µM [falling, full curve]
CCCC1=Nc2cc(C(=O)NCCc3ccccc3)ccc2Sc2ccc(C)cc21	inconclusive: 6.51 µM [activator, single point]
O=C(N/N=C/c1cccn1-c1ccc([N+](=O)[O-])cc1)c1cccnc1	active: 18.4 µM
COc1ccccc1NC1=C(C)C(=O)CC1	inconclusive: 16.4 µM [falling, single point]
CC1CCC(NC(=O)c2cccn2C)CC1 (centres undefined)	inconclusive: 0.651 µM [activator, full curve]
Cc1cc(Br)ccc1NC(=O)c1ccc(NS(=O)(=O)c2c(C)noc2C)cc1	inconclusive: 29.1 µM [falling, single point]
O=S(=O)(c1ccc(Nc2ccc3c(c2)OCO3)nc1)N1CCOCC1	inconclusive: 32.6 µM [activator, single point]
COCCCNC(=O)CSc1nc2ccccc2c(=O)n1Cc1ccc2c(c1)OCO2	inactive
Cn1c2ccccc2c2nnc(SCC(=O)Nc3cccc(O)c3)nc21	inconclusive: 18.4 µM [falling, single point]
CC(C)N1CCc2c(sc(NC(=O)c3ccc(S(=O)(=O)N4CCc5ccccc54)cc3)c2C(N)=O)C1	inconclusive: 18.4 µM [falling, single point]
Cc1cc(=O)oc2c3c4c(cc12)OCCN4CCC3	inactive
N#Cc1c(N)n(Cc2ccccc2)c(=O)c2cc([N+](=O)[O-])ccc12	inconclusive: 20.6 µM [activator, partial curve]
CCOC(=O)N/N=C\c1ccc([N+](=O)[O-])s1	active: 23.1 µM
COc1cc(/C=N/NC(=O)c2cccc(C)c2)ccc1OCC(=O)Nc1ccccc1	inconclusive: 2.91 µM [activator, full curve]
Nc1c(-c2nc(-c3ccc4c(c3)OCO4)cs2)c2ccccn2c1C(=O)c1ccccc1	inactive
CN1CCN(Cn2cc(/C=C/C(=O)c3ccccc3)c3ccccc32)CC1	inconclusive: 11.6 µM [activator, partial curve]
CC(=O)c1c(C)[nH]c(C(=O)OCC(=O)Nc2sc3c(c2C#N)CCCC3)c1C	active: 18.4 µM
COC(=O)CCCC1=CC2=C(c3ccccc3)C(=O)C(C)(OC(=O)C3CCCC3)C(=O)C2=CN1Cc1ccc(OC)cc1 (centres undefined)	inconclusive: 14.6 µM [falling, partial curve, poor fit]
FC(F)(F)c1cccc(Oc2nc(-c3ccccc3)nnc2C(F)(F)F)c1	inactive
